Measured values as given in article doi:10.1101/2023.03.28.534543.
Where two headings read alike, the source gives them in different places. No constants are given. Whether binding was seen depends on the method and setting. A result given as binding can be weak or reduced; the word gives no strength.

By UniProt entry, the sequences of proteins in these tests, tags left out. Where a name states a change or a piece, a line headed by the entry shows the natural chain unless it says otherwise.
UniProt D4H036: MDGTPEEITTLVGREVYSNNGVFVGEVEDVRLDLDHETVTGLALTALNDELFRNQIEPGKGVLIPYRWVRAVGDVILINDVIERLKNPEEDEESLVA
UniProt D4GTJ3: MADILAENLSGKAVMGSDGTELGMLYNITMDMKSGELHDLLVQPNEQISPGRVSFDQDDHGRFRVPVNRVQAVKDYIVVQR

Assays:
[1] = biological target: CdpB1 from Haloferax volcanii (Haloferax volcanii) (UniProt D4H036); experiment: SEC-MALS
[2] = biological target: CdpB1 from Haloferax volcanii (Haloferax volcanii) (UniProt D4H036); experiment: SEC-MALS; remark: listed apart in the source

Substance: CdpB2 from Haloferax volcanii (from UniProt D4GTJ3)
- binding [1]: binds
- binding [2]: binds
